The subject of this series is PANC1 and A375P cells. As to the kind of experiment: Subcellular localization by inherent fluorescence microscopy. The following applies: 6 hr, 3 μM, FIG. 2D. Type of series: cell-based.

As to `COc1ccc2nc3cc(Cl)ccc3c(NCCCCCNCCCCCNc3c4ccc(Cl)cc4nc4ccc(OC)cc34)c2c1` [DQ 550], the “subcellular localization (green/red fluorescence)” value was “strong green fluorescence in the nuclear compartment with little to no detectable red fluorescence”. The value for `COc1ccc2nc3cc(Cl)ccc3c(NCCCCCN(C)CCCCCNc3c4ccc(Cl)cc4nc4ccc(OC)cc34)c2c1` [DQ 551] was “strong red fluorescence in the perinuclear compartment where lysosomes reside”; that for `COc1ccc2nc3cc(Cl)ccc3c(NCCCCCCNCCCCCCNc3c4ccc(Cl)cc4nc4ccc(OC)cc34)c2c1` [DQ 660] was “strong green fluorescence in the nuclear compartment with little to no detectable red fluorescence”.

Turning to `COc1ccc2nc3cc(Cl)ccc3c(NCCCCCCN(C)CCCCCCNc3c4ccc(Cl)cc4nc4ccc(OC)cc34)c2c1` [DQ 661], the “subcellular localization (green/red fluorescence)” value was “strong red fluorescence in the perinuclear compartment where lysosomes reside”.
